According to patent publication US8691198B2, “Environmentally benign plasticizers based on derivatives of acetone” (priority 2010, dated 2014):

Test: Tensile and elongation of plasticized poly(vinyl butyraldehyde) film (Instron 5500 Tensiometer)
Conditions: PVB film, 28.78 % loading of plasticizer

SMILES: CCOC1(COC(=O)CC(C)C)COC(COC(=O)CC(C)C)(OCC)CO1 (centres unmarked) [Bis-isovalerate]
- Elongation (%): 64.55%
- Tensile (ksi): 0.523 ksi
